Measurements from PMC4405695.
These are yes or no findings as the source states them, for the method shown. For some of these results: In cells and extracts the contact can be indirect. Some results given as binding are weak or reduced against the parent protein; the word gives no strength. For some of these results: Where a sequence is shown, tags or fusion partners need not be part of it. One block for each substance: values may come before it.

The chains behind the UniProt entries cited, without tags or fusion partners. Where a name states a change or a piece, a line headed by the entry shows the natural chain unless it says otherwise.
UniProt P28738: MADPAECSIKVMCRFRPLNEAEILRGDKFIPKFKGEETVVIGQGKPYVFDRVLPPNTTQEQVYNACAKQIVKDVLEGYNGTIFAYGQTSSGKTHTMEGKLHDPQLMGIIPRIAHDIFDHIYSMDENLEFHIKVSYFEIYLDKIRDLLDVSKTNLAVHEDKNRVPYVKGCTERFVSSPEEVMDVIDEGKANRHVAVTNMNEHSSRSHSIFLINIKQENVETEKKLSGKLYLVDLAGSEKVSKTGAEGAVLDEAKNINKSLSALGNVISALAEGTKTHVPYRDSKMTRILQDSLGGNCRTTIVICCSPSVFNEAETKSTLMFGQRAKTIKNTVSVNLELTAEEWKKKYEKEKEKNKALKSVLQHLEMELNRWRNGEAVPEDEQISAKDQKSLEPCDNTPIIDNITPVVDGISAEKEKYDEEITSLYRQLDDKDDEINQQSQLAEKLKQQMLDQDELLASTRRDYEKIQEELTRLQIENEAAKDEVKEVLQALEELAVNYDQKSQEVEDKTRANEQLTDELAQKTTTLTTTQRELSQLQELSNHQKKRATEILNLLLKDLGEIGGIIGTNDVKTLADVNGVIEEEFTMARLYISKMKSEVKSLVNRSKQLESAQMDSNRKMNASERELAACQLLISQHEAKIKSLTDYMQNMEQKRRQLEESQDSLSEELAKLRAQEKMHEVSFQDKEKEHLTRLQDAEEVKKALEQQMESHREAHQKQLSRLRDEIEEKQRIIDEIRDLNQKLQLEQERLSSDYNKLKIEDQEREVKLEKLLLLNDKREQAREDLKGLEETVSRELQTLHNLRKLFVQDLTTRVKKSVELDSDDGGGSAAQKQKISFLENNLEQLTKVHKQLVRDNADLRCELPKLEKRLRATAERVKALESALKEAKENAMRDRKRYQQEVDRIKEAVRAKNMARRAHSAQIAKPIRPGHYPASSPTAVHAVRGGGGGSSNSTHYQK
UniProt P20339: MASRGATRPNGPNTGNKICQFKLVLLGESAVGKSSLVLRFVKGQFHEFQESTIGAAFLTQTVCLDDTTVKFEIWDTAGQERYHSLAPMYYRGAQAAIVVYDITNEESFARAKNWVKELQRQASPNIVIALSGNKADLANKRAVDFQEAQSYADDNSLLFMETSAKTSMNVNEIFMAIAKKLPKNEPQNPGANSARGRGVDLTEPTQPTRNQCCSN
UniProt P20340: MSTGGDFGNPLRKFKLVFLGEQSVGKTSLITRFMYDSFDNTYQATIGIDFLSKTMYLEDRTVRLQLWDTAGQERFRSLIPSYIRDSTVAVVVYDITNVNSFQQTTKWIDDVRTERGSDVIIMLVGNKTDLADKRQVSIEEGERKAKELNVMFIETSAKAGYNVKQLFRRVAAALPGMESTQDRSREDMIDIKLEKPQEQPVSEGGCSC

Key:
[1] = molecular target: T1, Full-length His-KIF1C (human) (UniProt O43896); assay: single-molecule TIRF microscopy; antibody-labelled full-length KIF1C (9-10 nM) on rhodamine-labelled microtubules (7.5 µg/ml) held on coverslips, ± GTPγS-loaded Rab6A (15 µM); both purified
T1 sequence: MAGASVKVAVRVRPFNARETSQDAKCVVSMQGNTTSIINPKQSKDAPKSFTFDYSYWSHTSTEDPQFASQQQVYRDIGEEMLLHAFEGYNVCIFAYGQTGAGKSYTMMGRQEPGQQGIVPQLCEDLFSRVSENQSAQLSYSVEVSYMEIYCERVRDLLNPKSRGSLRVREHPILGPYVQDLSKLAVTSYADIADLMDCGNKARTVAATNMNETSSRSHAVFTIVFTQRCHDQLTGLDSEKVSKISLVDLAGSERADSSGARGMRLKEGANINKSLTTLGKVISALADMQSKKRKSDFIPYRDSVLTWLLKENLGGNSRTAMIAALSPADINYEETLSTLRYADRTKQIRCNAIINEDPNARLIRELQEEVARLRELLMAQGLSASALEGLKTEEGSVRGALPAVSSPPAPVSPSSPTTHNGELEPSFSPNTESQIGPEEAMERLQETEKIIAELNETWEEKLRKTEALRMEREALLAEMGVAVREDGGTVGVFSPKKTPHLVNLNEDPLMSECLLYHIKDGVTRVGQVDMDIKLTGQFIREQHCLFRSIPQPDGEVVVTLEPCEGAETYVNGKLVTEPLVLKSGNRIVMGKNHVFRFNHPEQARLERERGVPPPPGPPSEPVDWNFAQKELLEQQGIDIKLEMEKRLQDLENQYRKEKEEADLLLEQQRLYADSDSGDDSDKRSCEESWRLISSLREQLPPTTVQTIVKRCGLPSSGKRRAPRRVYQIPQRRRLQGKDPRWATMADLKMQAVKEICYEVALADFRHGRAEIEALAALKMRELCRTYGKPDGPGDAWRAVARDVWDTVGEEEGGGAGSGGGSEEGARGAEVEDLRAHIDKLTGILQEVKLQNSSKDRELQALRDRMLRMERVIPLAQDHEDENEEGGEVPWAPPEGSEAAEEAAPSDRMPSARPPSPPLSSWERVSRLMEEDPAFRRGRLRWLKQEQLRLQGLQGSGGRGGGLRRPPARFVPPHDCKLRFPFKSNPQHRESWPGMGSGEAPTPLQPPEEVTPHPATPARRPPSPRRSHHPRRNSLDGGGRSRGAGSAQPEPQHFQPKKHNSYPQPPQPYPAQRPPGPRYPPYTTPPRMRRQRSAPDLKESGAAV

GST-KIF1C CBD (human) = molecular target: T2, GST-KIF1C CBD (human) (UniProt O43896); assay: pull-down; His-Rab preloaded with 35S-GTPγS (0.5-1 μM) with GST-KIF1C constructs (15 μM) on glutathione Sepharose, 1 hr room temperature, 20 mM HEPES pH 7.4, 150 mM KCl, 4 mM MgCl2, 0.1% BSA, 0.2% Triton X-100; scintillation counting; both purified
T2 sequence: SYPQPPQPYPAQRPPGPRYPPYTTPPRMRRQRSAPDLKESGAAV

CFP-KIF1C-350 (human) = molecular target: T3, CFP-KIF1C-350 (human) (UniProt O43896); assay: co-IP; HEK293 cells transfected 48 hr; lysis in 50 mM Hepes pH 7.4, 150 mM NaCl, 1% CHAPS; llama GFP-binding protein on Sepharose; immunoblot with anti-myc or anti-Rab6A
T3 sequence: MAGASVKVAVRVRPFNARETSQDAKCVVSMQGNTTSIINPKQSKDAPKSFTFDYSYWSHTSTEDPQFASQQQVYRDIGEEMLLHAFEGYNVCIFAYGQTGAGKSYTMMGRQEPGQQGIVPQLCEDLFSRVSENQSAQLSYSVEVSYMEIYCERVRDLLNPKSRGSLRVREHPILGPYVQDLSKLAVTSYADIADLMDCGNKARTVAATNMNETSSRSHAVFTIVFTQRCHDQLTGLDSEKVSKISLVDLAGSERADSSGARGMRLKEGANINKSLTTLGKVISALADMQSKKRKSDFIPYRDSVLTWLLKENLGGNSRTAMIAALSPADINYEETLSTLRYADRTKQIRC

[2] = molecular target: T4, KIF1C-355-His (human | murine) (UniProt O43896+P28738); assay: co-sedimentation; KIF1C-355-His (160 nM) with increasing His-Rab6A Q72L, then 2.1 µM microtubules, 2.6 mM ADP, 0.35 mM GTPγS; 35% sucrose cushion; fluorescent antibody immunoblot of pellets; both purified
T4 sequence: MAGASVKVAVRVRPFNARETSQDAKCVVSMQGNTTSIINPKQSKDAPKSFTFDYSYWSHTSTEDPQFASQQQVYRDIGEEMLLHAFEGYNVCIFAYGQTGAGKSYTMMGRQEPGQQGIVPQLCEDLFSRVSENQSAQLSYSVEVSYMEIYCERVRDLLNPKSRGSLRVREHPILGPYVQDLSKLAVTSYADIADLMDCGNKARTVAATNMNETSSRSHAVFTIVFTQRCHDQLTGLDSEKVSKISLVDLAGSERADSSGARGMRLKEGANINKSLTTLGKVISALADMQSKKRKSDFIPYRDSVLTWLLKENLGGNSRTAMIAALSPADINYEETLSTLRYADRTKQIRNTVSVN

GST-Rab5A Q79L = GST-Rab5A Q79L (UniProt P20339); assay: pull-down; purified KIF1C-355-His (45 nM-0.56 µM) with GTPγS-loaded GST-Rabs (0.2-2.5 μM) collected on glutathione Sepharose; immunoblot; one panel with AMP-PNP or ADP; both purified
GST-Rab6A Q72L [3] = molecular target: GST-Rab6A Q72L (UniProt P20340); assay: as above
GST-Rab6A Q72L [4] = molecular target: GST-Rab6A Q72L (UniProt P20340); assay: pull-down; concentration dependence: purified KIF1C-355-His (78.8 nM) with GTPγS-loaded GST-Rab6A Q72L immobilized on glutathione Sepharose; quantitative fluorescent antibody immunoblot; both purified

- binding [1]: binds
- binding (GST-KIF1C CBD (human)): binds
Substance: His-Rab6A (from UniProt P20340 1-208)

- binding (CFP-KIF1C-350 (human)): binds
Substance: endogenous Rab6A (from UniProt P20340 1-208)

- binding [2]: binds
Substance: His-Rab6A Q72L (from UniProt P20340 1-208)

- binding (GST-Rab6A Q72L [3]): binds
- binding (GST-Rab6A Q72L [4]): binds
Substance: KIF1C-355-His (from UniProt O43896 1-349; P28738 329-334) (domain or fragment)
- binding (GST-Rab5A Q79L): no binding (tested: 0.56 µM KIF1C-355-His, 0.2 μM GST-Rab)
